Reference: PMC6977653
No constants are given. Whether binding was seen depends on the method and setting. In cells and extracts the contact can be indirect. A yes stands for co-enrichment or nearness to the bait. Other partners may have been found.

Protein sequences, listed by entry. Tags and fused reporters are not part of them.
UniProt P49841: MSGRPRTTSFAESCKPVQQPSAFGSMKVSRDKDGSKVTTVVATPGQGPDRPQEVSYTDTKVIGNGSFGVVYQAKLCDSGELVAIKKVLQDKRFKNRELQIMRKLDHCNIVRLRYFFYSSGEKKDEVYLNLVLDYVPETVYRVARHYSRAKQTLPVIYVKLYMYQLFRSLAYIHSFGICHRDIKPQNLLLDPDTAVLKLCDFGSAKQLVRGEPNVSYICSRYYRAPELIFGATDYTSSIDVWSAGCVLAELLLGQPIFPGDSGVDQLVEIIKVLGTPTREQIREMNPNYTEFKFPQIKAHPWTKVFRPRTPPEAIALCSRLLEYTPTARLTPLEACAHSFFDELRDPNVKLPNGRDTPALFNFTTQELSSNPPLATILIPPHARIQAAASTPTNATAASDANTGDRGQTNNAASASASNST

Biological target: T1, FHL3 (in the co-immunoprecipitation with mass analysis) (UniProt Q13643)
T1 sequence: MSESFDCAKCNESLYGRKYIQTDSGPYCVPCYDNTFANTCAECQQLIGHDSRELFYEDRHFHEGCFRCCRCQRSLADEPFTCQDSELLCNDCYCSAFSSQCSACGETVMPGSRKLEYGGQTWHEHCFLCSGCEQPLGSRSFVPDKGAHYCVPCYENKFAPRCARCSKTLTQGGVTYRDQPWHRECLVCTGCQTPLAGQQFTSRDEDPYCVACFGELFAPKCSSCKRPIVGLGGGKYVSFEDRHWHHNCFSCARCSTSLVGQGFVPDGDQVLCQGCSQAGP
Assay: affinity purification with mass spectrometry; co-immunoprecipitation and mass analysis; data not provided; cells not told

binding: binds
Substance: GSK3β (found in the co-immunoprecipitation with mass analysis) (from UniProt P49841 1-420) (enzyme)
